Data published in doi:10.1101/2020.12.30.424827.
Where two headings read alike, the source gives them in different places. No constants are given. Whether binding was seen depends on the method and setting. Binding seen in cells or lysates may run through a third protein. Some results given as binding are weak or reduced against the parent protein; the word gives no strength.

The chains behind the UniProt entries cited, without tags or fusion partners. Residues count along the entry.
UniProt P31424, residues 21-1203: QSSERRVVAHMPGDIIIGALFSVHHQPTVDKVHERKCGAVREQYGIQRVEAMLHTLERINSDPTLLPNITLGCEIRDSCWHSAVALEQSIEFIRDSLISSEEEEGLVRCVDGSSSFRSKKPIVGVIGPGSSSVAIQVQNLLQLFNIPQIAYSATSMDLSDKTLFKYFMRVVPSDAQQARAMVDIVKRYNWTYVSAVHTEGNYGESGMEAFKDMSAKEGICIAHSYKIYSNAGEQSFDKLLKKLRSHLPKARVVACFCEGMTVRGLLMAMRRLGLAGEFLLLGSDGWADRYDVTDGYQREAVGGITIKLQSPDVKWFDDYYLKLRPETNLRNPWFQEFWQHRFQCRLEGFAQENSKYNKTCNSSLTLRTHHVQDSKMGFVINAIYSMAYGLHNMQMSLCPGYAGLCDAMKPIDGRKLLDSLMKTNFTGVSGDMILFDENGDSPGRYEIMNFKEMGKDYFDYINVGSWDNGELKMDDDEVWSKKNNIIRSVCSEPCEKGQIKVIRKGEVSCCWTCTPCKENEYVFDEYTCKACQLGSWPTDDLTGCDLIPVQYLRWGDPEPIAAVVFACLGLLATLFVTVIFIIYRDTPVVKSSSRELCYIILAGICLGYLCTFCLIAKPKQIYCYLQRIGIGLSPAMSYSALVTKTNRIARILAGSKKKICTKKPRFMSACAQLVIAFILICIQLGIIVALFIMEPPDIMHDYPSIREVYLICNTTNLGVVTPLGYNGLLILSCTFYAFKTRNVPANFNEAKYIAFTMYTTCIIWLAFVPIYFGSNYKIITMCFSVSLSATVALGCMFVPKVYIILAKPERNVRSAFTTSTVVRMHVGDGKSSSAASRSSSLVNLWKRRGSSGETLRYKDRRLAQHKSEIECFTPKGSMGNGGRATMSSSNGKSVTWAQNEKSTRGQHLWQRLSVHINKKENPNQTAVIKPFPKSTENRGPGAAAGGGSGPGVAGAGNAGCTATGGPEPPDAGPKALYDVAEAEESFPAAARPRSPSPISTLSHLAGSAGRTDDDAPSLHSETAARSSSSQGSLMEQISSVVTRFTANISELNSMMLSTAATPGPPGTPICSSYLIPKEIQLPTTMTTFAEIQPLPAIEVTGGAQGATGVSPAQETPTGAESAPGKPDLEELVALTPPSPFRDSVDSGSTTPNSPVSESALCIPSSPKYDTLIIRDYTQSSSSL

Tests used:
Assay in all cases: FRET or BRET
mGlu5-NLuc [1] = target: mGlu5-NLuc (UniProt P31424)
mGlu5-NLuc [2] = target: mGlu5-NLuc (UniProt P31424); remark: listed apart in the source
mGlu5-NLuc [3] = target: mGlu5-NLuc (UniProt P31424); remark: listed apart in the source

Measured: binding

B1: Venus-Homer1c (protein, UniProt Q9Z214 1-366)
chain: MGEQPIFSTRAHVFQIDPNTKKNWVPTSKHAVTVSYFYDSTRNVYRIISLDGSKAIINSTITPNMTFTKTSQKFGQWADSRANTVYGLGFSSEHHLSKFAEKFQEFKEAARLAKEKSQEKMELTSTPSQESAGGDLQSPLTPESINGTDDERTPDVTQNSEPRAEPAQNALPFSHSAGDRTQGLSHASSAISKHWEAELATLKGNNAKLTAALLESTANVKQWKQQLAAYQEEAERLHKRVTELECVSSQANAVHSHKTELSQTVQELEETLKVKEEEIERLKQEIDNARELQEQRDSLTQKLQEVEIRNKDLEGQLSELEQRLEKSQSEQDAFRSNLKTLLEILDGKIFELTELRDNLAKLLECS
binds: all assays above
